# Data reported in the supplement of paper PMC8728848.
# Some of the results follow.
# B1: Tp0751, 83732 (protein)
# chain: MSYYHHHHHHLESTSLYKKAGFQHGHVPPRRIPPHDTFGALPTAALPSNARDTAAHPSDTADNTSGSSTTTDPRSHGNAPPAPVGGAAQTHTQPPVQTAMRIALWNRATHGEQGALQHLLAGLWIQTEISPNSGDIHPLLFFDREHAEITFSRASVQEIFLVDSAHTHRKTVSFLTRNTAISSIRRRLEVTFESHEVIHVRAVEDVARLKIGSTSMWDGQYTRYHAGPASAPSP
# Legend:
# Assay in all cases: glycan array binding signal (z-score within array); higher = stronger binding
# Conditions in all cases: glycan notation: IUPAC condensed, linker removed
# [1] = biological target: Fuc(a1-2)Gal6S(b1-3)GlcNAc
# How it was run: (§1)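 From the Consortium for Functional Glycomics database, 3228 arrays were curated, keeping only those whose protein sequence was available. Binding is given as a within-array Z-score averaged across arrays sharing a protein sequence and across linkers. Negative Z-scores can be read as non-binding.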
# [2] = biological target: Fuc(a1-2)Gal6S(b1-3)GlcNAc6S
# How it was run: as §1
# [3] = biological target: Fuc(a1-2)Gal6S(b1-4)Glc
# How it was run: as §1
# [4] = biological target: Fuc(a1-2)Gal6S(b1-4)Glc6S
# How it was run: as §1
# [5] = biological target: Fuc(a1-2)[Gal(a1-3)]Gal
# How it was run: as §1
# [6] = biological target: Fuc(a1-2)[Gal(a1-3)]Gal(b1-3)GalNAc
# How it was run: as §1
# [7] = biological target: Fuc(a1-2)[Gal(a1-3)]Gal(b1-3)GalNAc(b1-3)Gal(a1-4)Gal(b1-4)Glc
# How it was run: as §1
# [8] = biological target: Fuc(a1-2)[Gal(a1-3)]Gal(b1-3)GlcNAc
# How it was run: as §1
# [9] = biological target: Fuc(a1-2)[Gal(a1-3)]Gal(b1-3)GlcNAc(b1-2)Man(a1-3)[Fuc(a1-2)[Gal(a1-3)]Gal(b1-3)GlcNAc(b1-2)Man(a1-6)]Man(b1-4)GlcNAc(b1-4)GlcNAc
# How it was run: as §1
# [10] = biological target: Fuc(a1-2)[Gal(a1-3)]Gal(b1-3)GlcNAc(b1-2)Man(a1-3)[Fuc(a1-2)[Gal(a1-3)]Gal(b1-3)GlcNAc(b1-2)Man(a1-6)]Man(b1-4)GlcNAc(b1-4)[Fuc(a1-6)]GlcNAc
# How it was run: as §1
# [11] = biological target: Fuc(a1-2)[Gal(a1-3)]Gal(b1-3)GlcNAc(b1-3)GalNAc
# How it was run: as §1
# [12] = biological target: Fuc(a1-2)[Gal(a1-3)]Gal(b1-3)GlcNAc(b1-6)GalNAc
# How it was run: as §1
# [13] = biological target: Fuc(a1-2)[Gal(a1-3)]Gal(b1-4)Glc
# How it was run: as §1
# [14] = biological target: Fuc(a1-2)[Gal(a1-3)]Gal(b1-4)GlcNAc
# How it was run: as §1
# [15] = biological target: Fuc(a1-2)[Gal(a1-3)]Gal(b1-4)GlcNAc(b1-2)Man
# How it was run: as §1
# [16] = biological target: Fuc(a1-2)[Gal(a1-3)]Gal(b1-4)GlcNAc(b1-2)Man(a1-3)[Fuc(a1-2)[Gal(a1-3)]Gal(b1-4)GlcNAc(b1-2)Man(a1-6)]Man(b1-4)GlcNAc(b1-4)GlcNAc
# How it was run: as §1
# [17] = biological target: Fuc(a1-2)[Gal(a1-3)]Gal(b1-4)GlcNAc(b1-2)Man(a1-3)[Fuc(a1-2)[Gal(a1-3)]Gal(b1-4)GlcNAc(b1-2)Man(a1-6)]Man(b1-4)GlcNAc(b1-4)[Fuc(a1-6)]GlcNAc
# How it was run: as §1
# [18] = biological target: Fuc(a1-2)[Gal(a1-3)]Gal(b1-4)GlcNAc(b1-3)GalNAc
# How it was run: as §1
# [19] = biological target: Fuc(a1-2)[Gal(a1-3)]Gal(b1-4)GlcNAc(b1-6)GalNAc
# How it was run: as §1
# [20] = biological target: Fuc(a1-2)[Gal(a1-3)]Gal(b1-4)[Fuc(a1-3)]Glc
# How it was run: as §1
# [21] = biological target: Fuc(a1-2)[Gal(a1-3)]Gal(b1-4)[Fuc(a1-3)]GlcNAc
# How it was run: as §1
# [22] = biological target: Fuc(a1-2)[Gal(a1-3)]Gal(b1-4)[Fuc(a1-3)]GlcNAc(b1-3)GalNAc
# How it was run: as §1
# [23] = biological target: Fuc(a1-2)[Gal(a1-4)]Gal(b1-4)GlcNAc
# How it was run: as §1
# [24] = biological target: Fuc(a1-2)[GalNAc(a1-3)]Gal
# How it was run: as §1
# [25] = biological target: Fuc(a1-2)[GalNAc(a1-3)]Gal(b1-3)GalNAc(a1-3)[Fuc(a1-2)]Gal(b1-4)GlcNAc
# How it was run: as §1
# [26] = biological target: Fuc(a1-2)[GalNAc(a1-3)]Gal(b1-3)GalNAc(b1-3)Gal(a1-4)Gal(b1-4)Glc
# How it was run: as §1
# [27] = biological target: Fuc(a1-2)[GalNAc(a1-3)]Gal(b1-3)GlcNAc
# How it was run: as §1
# [28] = biological target: Fuc(a1-2)[GalNAc(a1-3)]Gal(b1-3)GlcNAc(b1-2)Man(a1-3)[Fuc(a1-2)[GalNAc(a1-3)]Gal(b1-3)GlcNAc(b1-2)Man(a1-6)]Man(b1-4)GlcNAc(b1-4)GlcNAc
# How it was run: as §1
# [29] = biological target: Fuc(a1-2)[GalNAc(a1-3)]Gal(b1-3)GlcNAc(b1-2)Man(a1-3)[Fuc(a1-2)[GalNAc(a1-3)]Gal(b1-3)GlcNAc(b1-2)Man(a1-6)]Man(b1-4)GlcNAc(b1-4)[Fuc(a1-6)]GlcNAc
# How it was run: as §1
# [30] = biological target: Fuc(a1-2)[GalNAc(a1-3)]Gal(b1-3)GlcNAc(b1-3)GalNAc
# How it was run: as §1
# [31] = biological target: Fuc(a1-2)[GalNAc(a1-3)]Gal(b1-3)GlcNAc(b1-6)GalNAc
# How it was run: as §1
# [32] = biological target: Fuc(a1-2)[GalNAc(a1-3)]Gal(b1-4)Glc
# How it was run: as §1
# [33] = biological target: Fuc(a1-2)[GalNAc(a1-3)]Gal(b1-4)GlcNAc
# How it was run: as §1
# [34] = biological target: Fuc(a1-2)[GalNAc(a1-3)]Gal(b1-4)GlcNAc(b1-2)Man
# How it was run: as §1
# [35] = biological target: Fuc(a1-2)[GalNAc(a1-3)]Gal(b1-4)GlcNAc(b1-2)Man(a1-3)[Fuc(a1-2)[GalNAc(a1-3)]Gal(b1-4)GlcNAc(b1-2)Man(a1-6)]Man(b1-4)GlcNAc(b1-4)GlcNAc
# How it was run: as §1
# [36] = biological target: Fuc(a1-2)[GalNAc(a1-3)]Gal(b1-4)GlcNAc(b1-2)Man(a1-3)[Fuc(a1-2)[GalNAc(a1-3)]Gal(b1-4)GlcNAc(b1-2)Man(a1-6)]Man(b1-4)GlcNAc(b1-4)[Fuc(a1-6)]GlcNAc
# How it was run: as §1
# [37] = biological target: Fuc(a1-2)[GalNAc(a1-3)]Gal(b1-4)GlcNAc(b1-3)Gal(b1-4)GlcNAc
# How it was run: as §1
# [38] = biological target: Fuc(a1-2)[GalNAc(a1-3)]Gal(b1-4)GlcNAc(b1-3)Gal(b1-4)GlcNAc(b1-3)Gal(b1-4)GlcNAc
# How it was run: as §1
# [39] = biological target: Fuc(a1-2)[GalNAc(a1-3)]Gal(b1-4)GlcNAc(b1-3)GalNAc
# How it was run: as §1
# [40] = biological target: Fuc(a1-2)[GalNAc(a1-3)]Gal(b1-4)GlcNAc(b1-3)[Fuc(a1-2)[GalNAc(a1-3)]Gal(b1-4)GlcNAc(b1-6)]GalNAc
# How it was run: as §1
# [41] = biological target: Fuc(a1-2)[GalNAc(a1-3)]Gal(b1-4)GlcNAc(b1-6)GalNAc
# How it was run: as §1
# [42] = biological target: Fuc(a1-2)[GalNAc(a1-3)]Gal(b1-4)[Fuc(a1-3)]GlcNAc
# How it was run: as §1
# [43] = biological target: Fuc(a1-2)[GalNAc(a1-3)]Gal(b1-4)[Fuc(a1-3)]GlcNAc(b1-3)GalNAc
# How it was run: as §1
# [44] = biological target: Fuc(a1-2)[GalNAc(a1-4)]Gal(b1-4)GlcNAc
# How it was run: as §1
# [45] = biological target: Fuc(a1-2)[GalNAc(b1-3)]Gal
# How it was run: as §1
binder,measurement,setting,value
B1,glycan array binding signal (z-score),[1],-0.217
same,glycan array binding signal (z-score),[2],1.11
same,glycan array binding signal (z-score),[3],-0.154
same,glycan array binding signal (z-score),[4],-0.016
same,glycan array binding signal (z-score),[5],-0.156
same,glycan array binding signal (z-score),[6],0.425
same,glycan array binding signal (z-score),[7],-0.134
same,glycan array binding signal (z-score),[8],1.77
same,glycan array binding signal (z-score),[9],0.623
same,glycan array binding signal (z-score),[10],0.087
same,glycan array binding signal (z-score),[11],-0.668
same,glycan array binding signal (z-score),[12],0.819
same,glycan array binding signal (z-score),[13],0.399
same,glycan array binding signal (z-score),[14],0.066
same,glycan array binding signal (z-score),[15],-0.472
same,glycan array binding signal (z-score),[16],-0.106
same,glycan array binding signal (z-score),[17],-0.276
same,glycan array binding signal (z-score),[18],-0.513
same,glycan array binding signal (z-score),[19],1.24
same,glycan array binding signal (z-score),[20],-0.678
same,glycan array binding signal (z-score),[21],0.858
same,glycan array binding signal (z-score),[22],0.003
same,glycan array binding signal (z-score),[23],-0.764
same,glycan array binding signal (z-score),[24],-0.744
same,glycan array binding signal (z-score),[25],-0.003
same,glycan array binding signal (z-score),[26],-0.189
same,glycan array binding signal (z-score),[27],-0.672
same,glycan array binding signal (z-score),[28],-0.049
same,glycan array binding signal (z-score),[29],-0.442
same,glycan array binding signal (z-score),[30],-0.126
same,glycan array binding signal (z-score),[31],-0.716
same,glycan array binding signal (z-score),[32],-0.788
same,glycan array binding signal (z-score),[33],-0.68
same,glycan array binding signal (z-score),[34],-0.053
same,glycan array binding signal (z-score),[35],0.638
same,glycan array binding signal (z-score),[36],-0.219
same,glycan array binding signal (z-score),[37],-0.247
same,glycan array binding signal (z-score),[38],-0.232
same,glycan array binding signal (z-score),[39],-0.407
same,glycan array binding signal (z-score),[40],0.582
same,glycan array binding signal (z-score),[41],-0.13
same,glycan array binding signal (z-score),[42],0.025
same,glycan array binding signal (z-score),[43],-0.254
same,glycan array binding signal (z-score),[44],-0.599
same,glycan array binding signal (z-score),[45],-0.428
